The supplement of paper PMC12595434, “Development of retinoid nuclear receptor pathway antagonists through targeting aldehyde dehydrogenase 1A3” (iScience, 2025)
Some of the results follow. The data scatter; read single values as rough.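 Many melting curves are irregular; where none melted, Tm was taken as 64 °C.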

The chains behind the UniProt entries cited, without tags or fusion partners. Where a name states a change or a piece, a line headed by the entry shows the natural chain unless it says otherwise.
UniProt O43482, whole entry: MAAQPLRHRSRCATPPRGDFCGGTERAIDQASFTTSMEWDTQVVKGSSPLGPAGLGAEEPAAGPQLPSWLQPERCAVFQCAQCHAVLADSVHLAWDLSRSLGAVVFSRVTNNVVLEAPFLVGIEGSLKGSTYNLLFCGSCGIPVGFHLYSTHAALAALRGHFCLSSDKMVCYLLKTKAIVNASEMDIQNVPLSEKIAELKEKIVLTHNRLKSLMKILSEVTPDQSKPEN
UniProt O60861: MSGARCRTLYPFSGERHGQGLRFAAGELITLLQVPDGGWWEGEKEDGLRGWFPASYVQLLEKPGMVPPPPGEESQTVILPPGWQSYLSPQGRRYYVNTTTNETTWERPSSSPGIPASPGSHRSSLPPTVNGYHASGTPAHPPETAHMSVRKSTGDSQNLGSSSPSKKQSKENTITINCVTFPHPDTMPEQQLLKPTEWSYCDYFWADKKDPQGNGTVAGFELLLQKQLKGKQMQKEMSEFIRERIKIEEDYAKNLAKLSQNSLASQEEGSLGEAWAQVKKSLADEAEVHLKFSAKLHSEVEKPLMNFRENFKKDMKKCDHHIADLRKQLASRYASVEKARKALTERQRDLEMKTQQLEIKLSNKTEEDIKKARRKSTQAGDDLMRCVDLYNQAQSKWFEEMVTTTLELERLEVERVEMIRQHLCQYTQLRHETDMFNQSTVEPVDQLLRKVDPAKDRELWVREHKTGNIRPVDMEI
UniProt O43615: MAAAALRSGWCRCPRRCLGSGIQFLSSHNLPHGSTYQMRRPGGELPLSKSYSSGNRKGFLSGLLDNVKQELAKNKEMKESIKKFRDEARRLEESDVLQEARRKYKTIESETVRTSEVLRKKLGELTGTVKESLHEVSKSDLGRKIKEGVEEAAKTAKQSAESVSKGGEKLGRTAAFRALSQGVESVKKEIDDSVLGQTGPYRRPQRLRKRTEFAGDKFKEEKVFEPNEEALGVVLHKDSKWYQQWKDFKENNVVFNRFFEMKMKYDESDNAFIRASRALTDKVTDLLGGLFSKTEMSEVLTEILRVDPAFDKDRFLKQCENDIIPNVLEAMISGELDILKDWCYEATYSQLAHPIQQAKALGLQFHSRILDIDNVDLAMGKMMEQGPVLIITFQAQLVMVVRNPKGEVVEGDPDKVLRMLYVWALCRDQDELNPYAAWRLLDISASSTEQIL
UniProt O60942: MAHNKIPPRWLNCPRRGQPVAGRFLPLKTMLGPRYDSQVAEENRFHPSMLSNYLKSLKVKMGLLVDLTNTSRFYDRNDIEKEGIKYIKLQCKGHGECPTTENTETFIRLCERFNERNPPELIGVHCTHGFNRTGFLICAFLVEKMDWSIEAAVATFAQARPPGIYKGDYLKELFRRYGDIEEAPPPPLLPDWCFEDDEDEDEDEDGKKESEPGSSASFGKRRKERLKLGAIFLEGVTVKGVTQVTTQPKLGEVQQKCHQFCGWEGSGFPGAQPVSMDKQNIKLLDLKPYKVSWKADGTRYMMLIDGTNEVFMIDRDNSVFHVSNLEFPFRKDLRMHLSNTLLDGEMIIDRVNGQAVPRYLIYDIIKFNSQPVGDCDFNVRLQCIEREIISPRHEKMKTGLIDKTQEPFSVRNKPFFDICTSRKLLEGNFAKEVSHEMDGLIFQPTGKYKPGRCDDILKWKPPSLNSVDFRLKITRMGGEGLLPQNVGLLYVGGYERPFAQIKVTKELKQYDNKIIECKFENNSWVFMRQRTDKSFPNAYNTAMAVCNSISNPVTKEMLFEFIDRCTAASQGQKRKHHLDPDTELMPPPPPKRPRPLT
UniProt O60888: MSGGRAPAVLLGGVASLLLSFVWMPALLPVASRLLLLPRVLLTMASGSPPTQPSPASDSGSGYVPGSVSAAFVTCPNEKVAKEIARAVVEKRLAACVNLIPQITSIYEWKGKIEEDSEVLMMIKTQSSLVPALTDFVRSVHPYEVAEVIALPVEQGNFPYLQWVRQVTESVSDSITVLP
UniProt O75506: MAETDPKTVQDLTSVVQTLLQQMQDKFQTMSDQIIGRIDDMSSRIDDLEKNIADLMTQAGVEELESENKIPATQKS
UniProt O75419: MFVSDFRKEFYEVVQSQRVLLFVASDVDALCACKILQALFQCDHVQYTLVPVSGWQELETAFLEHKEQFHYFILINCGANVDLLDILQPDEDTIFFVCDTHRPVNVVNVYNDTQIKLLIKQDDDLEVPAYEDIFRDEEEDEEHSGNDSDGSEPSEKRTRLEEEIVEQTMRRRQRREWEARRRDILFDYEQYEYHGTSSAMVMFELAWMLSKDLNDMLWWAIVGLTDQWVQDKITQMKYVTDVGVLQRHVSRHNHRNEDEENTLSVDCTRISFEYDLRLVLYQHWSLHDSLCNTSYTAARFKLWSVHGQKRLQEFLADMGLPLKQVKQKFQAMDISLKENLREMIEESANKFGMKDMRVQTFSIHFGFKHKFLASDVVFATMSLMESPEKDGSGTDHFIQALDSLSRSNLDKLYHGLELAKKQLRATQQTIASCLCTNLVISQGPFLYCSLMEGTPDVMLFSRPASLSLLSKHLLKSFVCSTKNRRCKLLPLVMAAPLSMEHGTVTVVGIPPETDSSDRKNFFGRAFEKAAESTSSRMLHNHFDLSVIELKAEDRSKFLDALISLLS
UniProt O75533, whole entry: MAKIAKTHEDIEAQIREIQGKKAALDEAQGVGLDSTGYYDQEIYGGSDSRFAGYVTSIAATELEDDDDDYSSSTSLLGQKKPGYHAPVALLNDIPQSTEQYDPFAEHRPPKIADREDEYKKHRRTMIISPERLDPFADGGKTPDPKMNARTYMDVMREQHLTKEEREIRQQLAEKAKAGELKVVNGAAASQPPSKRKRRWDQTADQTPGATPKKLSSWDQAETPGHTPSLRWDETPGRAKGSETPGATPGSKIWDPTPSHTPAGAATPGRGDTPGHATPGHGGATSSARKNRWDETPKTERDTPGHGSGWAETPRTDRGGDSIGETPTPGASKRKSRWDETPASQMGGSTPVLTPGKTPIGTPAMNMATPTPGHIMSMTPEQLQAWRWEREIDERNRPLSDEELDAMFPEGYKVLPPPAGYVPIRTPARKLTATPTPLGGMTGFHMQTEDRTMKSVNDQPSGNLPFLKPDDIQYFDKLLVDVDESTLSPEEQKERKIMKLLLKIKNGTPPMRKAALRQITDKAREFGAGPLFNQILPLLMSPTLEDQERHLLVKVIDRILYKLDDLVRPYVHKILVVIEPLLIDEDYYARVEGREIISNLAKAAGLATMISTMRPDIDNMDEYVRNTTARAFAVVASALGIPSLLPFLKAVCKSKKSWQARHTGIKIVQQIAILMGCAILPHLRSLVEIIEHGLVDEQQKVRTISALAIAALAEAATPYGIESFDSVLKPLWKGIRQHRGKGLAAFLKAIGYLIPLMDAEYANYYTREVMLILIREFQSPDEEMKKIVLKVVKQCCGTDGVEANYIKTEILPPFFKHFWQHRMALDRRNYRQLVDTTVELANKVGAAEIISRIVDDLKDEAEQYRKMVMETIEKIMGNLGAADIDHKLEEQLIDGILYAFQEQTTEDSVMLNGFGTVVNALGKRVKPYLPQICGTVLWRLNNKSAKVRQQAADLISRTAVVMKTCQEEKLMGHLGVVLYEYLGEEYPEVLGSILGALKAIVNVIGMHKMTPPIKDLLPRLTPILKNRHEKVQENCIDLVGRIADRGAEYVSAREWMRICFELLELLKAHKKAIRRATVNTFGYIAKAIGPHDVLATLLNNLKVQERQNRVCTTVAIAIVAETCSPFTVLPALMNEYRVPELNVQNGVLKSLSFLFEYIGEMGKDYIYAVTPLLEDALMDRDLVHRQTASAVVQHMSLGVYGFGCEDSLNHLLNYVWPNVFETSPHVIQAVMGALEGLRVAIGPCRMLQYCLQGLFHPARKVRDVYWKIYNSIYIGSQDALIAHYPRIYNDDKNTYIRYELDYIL
UniProt O43920, whole entry: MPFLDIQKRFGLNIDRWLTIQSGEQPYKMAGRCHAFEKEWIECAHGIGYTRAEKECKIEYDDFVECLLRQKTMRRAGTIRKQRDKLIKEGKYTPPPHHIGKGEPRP
UniProt O60763: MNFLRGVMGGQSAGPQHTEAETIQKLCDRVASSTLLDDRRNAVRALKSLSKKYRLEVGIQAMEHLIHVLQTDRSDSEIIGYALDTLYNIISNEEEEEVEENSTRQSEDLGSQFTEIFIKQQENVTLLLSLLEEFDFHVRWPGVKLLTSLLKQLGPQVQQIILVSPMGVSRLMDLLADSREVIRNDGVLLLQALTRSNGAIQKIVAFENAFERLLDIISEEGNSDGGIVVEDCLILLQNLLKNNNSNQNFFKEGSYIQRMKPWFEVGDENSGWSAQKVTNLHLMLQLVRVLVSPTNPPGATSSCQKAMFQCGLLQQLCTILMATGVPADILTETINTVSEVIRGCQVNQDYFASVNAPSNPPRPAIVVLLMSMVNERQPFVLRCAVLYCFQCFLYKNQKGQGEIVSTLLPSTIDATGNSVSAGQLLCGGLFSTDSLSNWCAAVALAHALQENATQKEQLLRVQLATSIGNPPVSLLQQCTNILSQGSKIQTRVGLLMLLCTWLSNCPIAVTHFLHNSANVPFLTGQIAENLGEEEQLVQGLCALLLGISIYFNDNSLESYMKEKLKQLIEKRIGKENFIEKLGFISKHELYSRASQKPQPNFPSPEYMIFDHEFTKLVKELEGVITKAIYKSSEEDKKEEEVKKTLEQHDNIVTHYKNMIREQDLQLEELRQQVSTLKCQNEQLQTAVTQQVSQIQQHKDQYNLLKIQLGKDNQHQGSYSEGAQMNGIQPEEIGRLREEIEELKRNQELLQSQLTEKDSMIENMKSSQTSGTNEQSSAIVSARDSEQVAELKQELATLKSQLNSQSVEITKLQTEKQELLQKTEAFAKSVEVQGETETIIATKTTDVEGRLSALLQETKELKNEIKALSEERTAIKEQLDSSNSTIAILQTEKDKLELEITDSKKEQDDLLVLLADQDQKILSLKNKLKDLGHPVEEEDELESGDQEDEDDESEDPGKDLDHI
UniProt O60499: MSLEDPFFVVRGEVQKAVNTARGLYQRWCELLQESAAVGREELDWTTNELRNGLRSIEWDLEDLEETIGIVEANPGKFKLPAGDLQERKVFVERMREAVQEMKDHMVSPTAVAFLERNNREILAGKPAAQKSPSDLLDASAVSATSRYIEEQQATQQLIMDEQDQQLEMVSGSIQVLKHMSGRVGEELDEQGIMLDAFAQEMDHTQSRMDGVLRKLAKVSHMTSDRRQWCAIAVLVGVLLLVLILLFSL
UniProt O43597: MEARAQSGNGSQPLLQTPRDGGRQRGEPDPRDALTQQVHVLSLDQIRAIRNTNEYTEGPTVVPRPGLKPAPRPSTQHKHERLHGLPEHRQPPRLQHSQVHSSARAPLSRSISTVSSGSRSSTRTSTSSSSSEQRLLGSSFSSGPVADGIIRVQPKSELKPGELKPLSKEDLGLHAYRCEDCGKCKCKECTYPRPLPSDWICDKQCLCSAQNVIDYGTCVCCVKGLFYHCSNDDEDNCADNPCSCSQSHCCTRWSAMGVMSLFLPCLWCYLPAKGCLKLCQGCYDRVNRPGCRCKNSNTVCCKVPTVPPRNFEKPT
UniProt O75027: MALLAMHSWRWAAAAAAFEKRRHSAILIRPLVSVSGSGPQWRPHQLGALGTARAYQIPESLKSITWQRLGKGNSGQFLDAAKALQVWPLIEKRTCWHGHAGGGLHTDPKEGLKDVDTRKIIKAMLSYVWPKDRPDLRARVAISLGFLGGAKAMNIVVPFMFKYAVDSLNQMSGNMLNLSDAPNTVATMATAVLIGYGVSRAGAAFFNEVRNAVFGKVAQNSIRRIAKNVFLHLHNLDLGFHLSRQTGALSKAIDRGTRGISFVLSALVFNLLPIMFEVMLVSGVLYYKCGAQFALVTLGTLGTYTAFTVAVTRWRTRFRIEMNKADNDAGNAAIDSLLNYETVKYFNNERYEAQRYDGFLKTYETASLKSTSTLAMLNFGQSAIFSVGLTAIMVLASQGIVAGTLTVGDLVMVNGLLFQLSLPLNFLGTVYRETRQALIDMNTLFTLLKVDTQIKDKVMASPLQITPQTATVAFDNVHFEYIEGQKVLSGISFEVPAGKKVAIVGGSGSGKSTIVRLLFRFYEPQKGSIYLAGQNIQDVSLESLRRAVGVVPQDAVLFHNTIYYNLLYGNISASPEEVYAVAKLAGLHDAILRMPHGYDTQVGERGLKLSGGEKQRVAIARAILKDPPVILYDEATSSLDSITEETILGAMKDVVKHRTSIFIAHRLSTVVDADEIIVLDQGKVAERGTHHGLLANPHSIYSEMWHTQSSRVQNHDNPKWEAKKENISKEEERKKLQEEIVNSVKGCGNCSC
UniProt O75822, whole entry: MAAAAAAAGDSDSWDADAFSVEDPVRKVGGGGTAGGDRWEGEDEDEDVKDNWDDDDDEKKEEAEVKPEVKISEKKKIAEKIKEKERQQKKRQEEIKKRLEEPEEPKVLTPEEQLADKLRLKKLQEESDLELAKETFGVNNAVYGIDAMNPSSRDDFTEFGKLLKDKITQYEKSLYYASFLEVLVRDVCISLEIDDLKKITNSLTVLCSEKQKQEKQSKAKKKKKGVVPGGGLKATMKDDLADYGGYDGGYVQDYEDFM

Compound: CCc1cnccc1C(=O)Nc1cc2c(cc1F)NC(=O)CC2
Assay: melting temperature shift (DMSO Tm minus MBE1-treated Tm) in cellular thermal proteome profiling; higher = less thermal stabilization by MBE1 (negative = stabilized by MBE1)
Conditions: A375

Target	melting temperature shift (MBE1 concentration: 100 nM) [°C]	melting temperature shift (MBE1 concentration: 1 uM) [°C]
UniProt O43482	-1.12	0.226
UniProt O60861	0.0833	0.0577
TIMM44 (UniProt O43615)	0.409	0.837
RNGTT (UniProt O60942)	-0.865	-0.638
CUTA (UniProt O60888)	-0.611	-4.03
TBC1D4 (UniProt O60343)	1.17	0.525
UniProt O75506	-2.8	-1.74
CDC45 (UniProt O75419)	-0.878	-0.436
SF3B1 (UniProt O75533)	0.794	0.733
PHLPP1 (UniProt O60346)	0.114	1.15
OFD1 (UniProt O75665)	-1.78	2.8
NDUFS5 (UniProt O43920)	-1.36	-0.84
FLNB (UniProt O75369)	0.177	0.488
USO1 (UniProt O60763)	0.678	0.397
STX10 (UniProt O60499)	-1.24	-0.409
UniProt O43597	-5.05	-3.36
UniProt O60739	-3.71	-0.0183
NOS1AP (UniProt O75052)	-0.244	-0.855
ABCB7 (UniProt O75027)	-0.221	0.495
UniProt O60220	-1.25	-3.62
EIF3J (UniProt O75822)	-1.16	0.376
TACC1 (UniProt O75410)	-1.59	-0.488
BRD4 (UniProt O60885)	-0.487	-0.32

Complete entries from above.
UniProt O43482 is listed as melting temperature shift (MBE1 concentration: 100 nM) [°C]: -1.12; melting temperature shift (MBE1 concentration: 1 uM) [°C]: 0.226
UniProt O43597 is listed as melting temperature shift (MBE1 concentration: 100 nM) [°C]: -5.05; melting temperature shift (MBE1 concentration: 1 uM) [°C]: -3.36
